The experiment deals with HeLa. The experiment in a line: Cytotoxicity against human HeLa cells after 72 hrs by MTT assay. In kind it is functional, cell-based.

The compound `COc1cc2c(c(OC)c1OC)-c1ccc(OC)c(=O)cc1[C@@H](NC(C)=O)CC2` [COLCHICINE] had a half-inhibitory concentration (IC50) of 27 nM.

The IC50 is the point on the concentration scale where inhibition reaches its midpoint.

These data come from ChEMBL document CHEMBL4196150, “Structurally Diverse Highly Oxygenated Triterpenoids from the Roots of Ailanthus altissima and Their Cytotoxicity” (J Nat Prod, 2018).
